Literature values as cited in US9409146B2, “Method for treating amyloid disease” (New York University, priority 2002, dated 2016).

B1: α 1-antichymotrypsin: Aβ binding compound, naturally occurring in plasma (protein, UniProt P01011 24-423, looked up)
Alpha-1-antichymotrypsin: HPNSPLDEENLTQENQDRGTHVDLGLASANVDFAFSLYKQLVLKAPDKNVIFSPLSISTALAFLSLGAHNTTLTEILKGLKFNLTETSEAEIHQSFQHLLRTLNQSSDELQLSMGNAMFVKEQLSLLDRFTEDAKRLYGSEAFATDFQDSAAAKKLINDYVKNGTRGKITDLIKDLDSQTMMVLVNYIFFKAKWEMPFDPQDTHQSRFYLSKKKWVMVPMMSLHHLTIPYFRDEELSCTVVELKYTGNASALFILPDQDKMEEVEAMLLPETLKRWRDSLEFREIGELYLPKFSISRDYNLNDILLQLGIEEAFTSKADLSGITGARNLAVSQVVHKAVLDVFEEGTEASAATAVKITLLSALVETRTIVRFNRPFLMIIVPTDTQNIFFMSKVTNPKQA

Details: naturally occurring, approximate; cited from earlier work

| Molecule | Mean Plasma Levels [µg/mL] |
| --- | --- |
| Apolipoprotein E (dimer): Aβ binding compound, naturally occurring in plasma | 54 |
| serum amyloid P component: Aβ binding compound, naturally occurring in plasma | 34 |
| Apolipoprotein E (monomer): Aβ binding compound, naturally occurring in plasma | 54 |
| Apolipoprotein J: Aβ binding compound, naturally occurring in plasma | 100 |
| B1 | 40 |
